Test [1] addresses Gal4 DNA-BD-Grb14 fusion (full length Grb14, GRB14/pAS2.1) (S. cerevisiae) (UniProt P04386+Q14449). The experiment in a line: yeast two hybrid screen with Grb14 bait.
For test [2], the target named is Grb7 (from human breast cancer cells SK-BR-3) (human) (UniProt Q14451). Kind of test: GST pull-down from SK-BR-3 lysate, Western blot. On the technique in general: Immunoblotting shows a protein as a band on a membrane.
The target of test [3] is Flag epitope-tagged Grb14 (UniProt Q14449). Kind of test: GST pull-down from lysate of cells expressing Flag-tagged Grb14, Western blot.

Protein sequences, listed by entry. Tags and fused reporters are not part of them. Lines headed by an entry give the natural chain unless they say otherwise; changes in a name come on top.
UniProt P04386: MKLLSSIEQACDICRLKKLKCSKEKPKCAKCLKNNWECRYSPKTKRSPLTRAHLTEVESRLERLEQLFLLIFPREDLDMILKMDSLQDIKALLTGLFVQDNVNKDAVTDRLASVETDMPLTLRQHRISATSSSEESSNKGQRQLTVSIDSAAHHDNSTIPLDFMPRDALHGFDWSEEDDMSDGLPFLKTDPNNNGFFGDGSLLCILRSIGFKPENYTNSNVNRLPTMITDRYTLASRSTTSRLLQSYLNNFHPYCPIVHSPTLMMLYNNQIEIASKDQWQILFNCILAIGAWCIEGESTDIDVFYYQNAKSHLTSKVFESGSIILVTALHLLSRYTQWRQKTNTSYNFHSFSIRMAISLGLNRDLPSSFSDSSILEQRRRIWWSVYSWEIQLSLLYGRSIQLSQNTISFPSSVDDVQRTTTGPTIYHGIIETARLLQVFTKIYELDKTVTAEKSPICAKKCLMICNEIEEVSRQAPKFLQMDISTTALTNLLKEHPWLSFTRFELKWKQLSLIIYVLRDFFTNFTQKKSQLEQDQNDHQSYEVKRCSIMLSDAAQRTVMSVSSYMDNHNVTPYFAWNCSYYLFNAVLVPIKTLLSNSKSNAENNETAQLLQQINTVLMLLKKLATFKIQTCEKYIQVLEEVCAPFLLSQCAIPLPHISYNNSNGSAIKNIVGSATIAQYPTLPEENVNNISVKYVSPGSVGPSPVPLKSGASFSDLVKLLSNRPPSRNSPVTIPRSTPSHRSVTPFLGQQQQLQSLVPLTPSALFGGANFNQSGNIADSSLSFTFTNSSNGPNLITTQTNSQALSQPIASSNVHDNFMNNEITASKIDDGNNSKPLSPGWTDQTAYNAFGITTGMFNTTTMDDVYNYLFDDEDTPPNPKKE
UniProt Q14449: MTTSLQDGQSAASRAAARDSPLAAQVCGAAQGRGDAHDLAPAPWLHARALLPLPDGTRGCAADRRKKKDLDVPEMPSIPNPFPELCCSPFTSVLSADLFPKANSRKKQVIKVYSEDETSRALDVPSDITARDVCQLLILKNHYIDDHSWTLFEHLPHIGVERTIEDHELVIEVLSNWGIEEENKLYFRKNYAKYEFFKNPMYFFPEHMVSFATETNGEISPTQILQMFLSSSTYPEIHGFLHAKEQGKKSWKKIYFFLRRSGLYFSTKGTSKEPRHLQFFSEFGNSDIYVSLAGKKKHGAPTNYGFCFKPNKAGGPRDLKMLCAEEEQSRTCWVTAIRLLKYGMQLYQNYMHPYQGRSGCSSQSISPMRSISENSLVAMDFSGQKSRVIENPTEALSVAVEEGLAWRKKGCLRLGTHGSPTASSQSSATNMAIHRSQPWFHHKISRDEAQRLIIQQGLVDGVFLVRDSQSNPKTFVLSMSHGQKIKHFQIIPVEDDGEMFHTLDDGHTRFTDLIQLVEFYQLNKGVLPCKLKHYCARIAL

Results are given in words; binding and its absence hold for the method and conditions named. For some of these results: Binding seen in cells or lysates may run through a third protein. Some binding calls cover weakened binding; strength is not graded here. For some of these results: Tags and fused reporters may be left off the sequences shown.

B1: original 2.2412 cDNA clone in pACT-2 (nucleotides 694-2664 of FIG. 1, polypeptide of 657 amino acids) (protein, not shown: large carriers)
chain: ERLAYEFKGHSLLQAAREADVTRIKKHLSLEMVNFKHPQTHETALHCAAASPYPKRKQICELLLRKGANINEKTKEFLTPLHVASEKAHNDVVEVVVKHEAKVNALDNLGQTSLHRAAYCGHLQTCRLLLSYGCDPNIISLQGFTALQMGNENVQQLLQEGISLGNSEADRQLLEAAKAGDVETVKKLCTVQSVNCRDIEGRQSTPLHFAAGYNRVSVVEYLLQHGADVHAKDKGGLVPLHNACSYGHYEVAELLVKHGAVVNVADLWKFTPLHEAAAKGKYEICKLLLQHGADPTKKNRDGNTPLDLVKDGDTDIQDLLRGDAALLDAAKKGCLARVKKLSSPDNVNCRDTQGRHSTPLHLAAGYNNLEVAEYLLQHGADVNAQDKGGLIPLHNAASYGHVDVAALLIKYNASLNATDKWAFTPLHEAAQKGRTQLCALLLAHGADPTLKNQEGQTPLDLVSADDVSALLTAAMPPSALPSCYKPQVLNGVRSPGATADALSSGPSSPSSLSAASSLDNLSGSFSELSSVVSSSGTEGASSLEKKEVPGVDFSITQFVRNLGLEHLMDIFEREQITLDVLVEMGHKELKEIGINAYGHRHKLIKGVERLISGQQGLNPYLTLNTSGSGTILIDLSPDDKEFQSVEEEMQSTVREHR
As to B1, the binding entry in test [1] is “binds”.

B2: GST fusion of the full length original 2.2412 cDNA clone (nucleotides 694-2664 of FIG. 1) in pGEX4T2 (protein, not shown: a dimerising Fc or GST)
chain: ERLAYEFKGHSLLQAAREADVTRIKKHLSLEMVNFKHPQTHETALHCAAASPYPKRKQICELLLRKGANINEKTKEFLTPLHVASEKAHNDVVEVVVKHEAKVNALDNLGQTSLHRAAYCGHLQTCRLLLSYGCDPNIISLQGFTALQMGNENVQQLLQEGISLGNSEADRQLLEAAKAGDVETVKKLCTVQSVNCRDIEGRQSTPLHFAAGYNRVSVVEYLLQHGADVHAKDKGGLVPLHNACSYGHYEVAELLVKHGAVVNVADLWKFTPLHEAAAKGKYEICKLLLQHGADPTKKNRDGNTPLDLVKDGDTDIQDLLRGDAALLDAAKKGCLARVKKLSSPDNVNCRDTQGRHSTPLHLAAGYNNLEVAEYLLQHGADVNAQDKGGLIPLHNAASYGHVDVAALLIKYNASLNATDKWAFTPLHEAAQKGRTQLCALLLAHGADPTLKNQEGQTPLDLVSADDVSALLTAAMPPSALPSCYKPQVLNGVRSPGATADALSSGPSSPSSLSAASSLDNLSGSFSELSSVVSSSGTEGASSLEKKEVPGVDFSITQFVRNLGLEHLMDIFEREQITLDVLVEMGHKELKEIGINAYGHRHKLIKGVERLISGQQGLNPYLTLNTSGSGTILIDLSPDDKEFQSVEEEMQSTVREHR
As for B2, the binding result in test [2] and in test [3] was “binds” throughout.

B3: GST fusion of the C-terminal region of the original 2.2412 cDNA clone (nucleotides 1615-2664 of FIG. 1) in pGEX4T2 (protein, not shown: a dimerising Fc or GST)
chain: LVKDGDTDIQDLLRGDAALLDAAKKGCLARVKKLSSPDNVNCRDTQGRHSTPLHLAAGYNNLEVAEYLLQHGADVNAQDKGGLIPLHNAASYGHVDVAALLIKYNASLNATDKWAFTPLHEAAQKGRTQLCALLLAHGADPTLKNQEGQTPLDLVSADDVSALLTAAMPPSALPSCYKPQVLNGVRSPGATADALSSGPSSPSSLSAASSLDNLSGSFSELSSVVSSSGTEGASSLEKKEVPGVDFSITQFVRNLGLEHLMDIFEREQITLDVLVEMGHKELKEIGINAYGHRHKLIKGVERLISGQQGLNPYLTLNTSGSGTILIDLSPDDKEFQSVEEEMQSTVREHR
As for B3, the binding result in test [2] and in test [3] was “binds” each time.

B4: GST fusion of the N-terminal region of the original 2.2412 cDNA clone (nucleotides 694-1614 of FIG. 1) in pGEX4T2 (protein, not shown: a dimerising Fc or GST)
chain: ERLAYEFKGHSLLQAAREADVTRIKKHLSLEMVNFKHPQTHETALHCAAASPYPKRKQICELLLRKGANINEKTKEFLTPLHVASEKAHNDVVEVVVKHEAKVNALDNLGQTSLHRAAYCGHLQTCRLLLSYGCDPNIISLQGFTALQMGNENVQQLLQEGISLGNSEADRQLLEAAKAGDVETVKKLCTVQSVNCRDIEGRQSTPLHFAAGYNRVSVVEYLLQHGADVHAKDKGGLVPLHNACSYGHYEVAELLVKHGAVVNVADLWKFTPLHEAAAKGKYEICKLLLQHGADPTKKNRDGNTPLD
Turning to B4, the binding entry in test [2] and in test [3] was “binds” in each case.

Values taken from patent US20020037582A1.
